Experimental data reported in article doi:10.1101/2025.09.30.679260.
No constants are given. Whether binding was seen depends on the method and setting. Binding seen in cells or lysates may run through a third protein. Some entries that bind do so weakly or less than the wild type.

Sequences of proteins named here, by UniProt entry; tags and fusion partners are left off.
UniProt Q13148: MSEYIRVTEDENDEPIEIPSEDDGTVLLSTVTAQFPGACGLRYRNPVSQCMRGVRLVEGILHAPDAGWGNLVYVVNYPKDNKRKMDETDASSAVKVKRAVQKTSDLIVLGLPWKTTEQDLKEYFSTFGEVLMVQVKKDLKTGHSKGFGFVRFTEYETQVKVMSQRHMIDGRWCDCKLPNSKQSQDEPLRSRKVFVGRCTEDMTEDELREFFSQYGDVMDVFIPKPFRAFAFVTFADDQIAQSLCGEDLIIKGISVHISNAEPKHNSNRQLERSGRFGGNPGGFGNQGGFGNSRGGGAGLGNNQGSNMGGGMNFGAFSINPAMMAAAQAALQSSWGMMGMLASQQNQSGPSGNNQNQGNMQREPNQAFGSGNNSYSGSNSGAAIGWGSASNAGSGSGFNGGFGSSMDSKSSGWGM

Target: TDP-43 (human (endogenous in iPSC-derived neurons)) (UniProt Q13148)
Assay: co-IP

B1: ZCCHC8 (protein, UniProt Q6NZY4 1-707)
chain: MAAEVYFGDLELFEPFDHPEESIPKPVHTRFKDDDGDEEDENGVGDAELRERLRQCEETIEQLRAENQELKRKLNILTRPSGILVNDTKLDGPILQILFMNNAISKQYHQEIEEFVSNLVKRFEEQQKNDVEKTSFNLLPQPSSIVLEEDHKVEESCAIKNNKEAFSVVGSVLYFTNFCLDKLGQPLLNENPQLSEGWEIPKYHQVFSHIVSLEGQEIQVKAKRPKPHCFNCGSEEHQMKDCPMPRNAARISEKRKEYMDACGEANNQNFQQRYHAEEVEERFGRFKPGVISEELQDALGVTDKSLPPFIYRMRQLGYPPGWLKEAELENSGLALYDGKDGTDGETEVGEIQQNKSVTYDLSKLVNYPGFNISTPRGIPDEWRIFGSIPMQACQQKDVFANYLTSNFQAPGVKSGNKRSSSHSSPGSPKKQKNESNSAGSPADMELDSDMEVPHGSQSSESFQFQPPLPPDTPPLPRGTPPPVFTPPLPKGTPPLTPSDSPQTRTASGAVDEDALTLEELEEQQRRIWAALEQAESVNSDSDVPVDTPLTGNSVASSPCPNELDLPVPEGKTSEKQTLDEPEVPEIFTKKSEAGHASSPDSEVTSLCQKEKAELAPVNTEGALLDNGSVVPNCDISNGGSQKLFPADTSPSTATKIHSPIPDMSKFATGITPFEFENMAESTGMYLRIRSLLKNSPRNQQKNKKASE
  binding: binds
